Primary screen of a compound library

Protein sequences, listed by entry. Tags and fused reporters are not part of them.
UniProt E9BF75, entry or part of it: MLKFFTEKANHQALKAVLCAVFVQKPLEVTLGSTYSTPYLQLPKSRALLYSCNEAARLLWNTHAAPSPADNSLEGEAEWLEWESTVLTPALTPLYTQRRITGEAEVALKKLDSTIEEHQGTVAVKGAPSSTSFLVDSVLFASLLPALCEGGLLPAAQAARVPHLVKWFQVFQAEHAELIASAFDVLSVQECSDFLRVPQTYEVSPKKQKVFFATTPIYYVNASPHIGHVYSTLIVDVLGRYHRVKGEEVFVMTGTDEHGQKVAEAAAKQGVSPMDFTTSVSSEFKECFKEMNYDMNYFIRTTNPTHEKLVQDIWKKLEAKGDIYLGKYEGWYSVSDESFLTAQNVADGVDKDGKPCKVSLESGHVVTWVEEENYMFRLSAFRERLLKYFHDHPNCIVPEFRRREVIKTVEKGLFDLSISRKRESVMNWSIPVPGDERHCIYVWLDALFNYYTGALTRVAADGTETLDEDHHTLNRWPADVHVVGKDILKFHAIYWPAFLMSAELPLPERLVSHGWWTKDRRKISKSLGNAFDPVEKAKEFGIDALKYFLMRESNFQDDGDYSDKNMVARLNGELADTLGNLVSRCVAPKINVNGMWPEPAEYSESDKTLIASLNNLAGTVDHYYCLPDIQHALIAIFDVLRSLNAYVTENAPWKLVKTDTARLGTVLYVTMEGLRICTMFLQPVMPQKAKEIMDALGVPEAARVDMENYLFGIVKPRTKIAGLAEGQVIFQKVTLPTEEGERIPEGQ

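Methionyl-tRNA synthetase (putative), Leishmania donovani (UniProt E9BF75). Primary screen of methionyl-tRNA synthetase; the read-out is not stated. The test concentration is not given. Values are per cent inhibition. Of about 68,000 compounds tested this way, about 24 (0.035%) reached 50% or more in at least one test.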

Results are percentages, as filed. The record does not define 0% and 100%; most values in the screen are far below 50% and negative numbers occur (in some assays of this library far below -100). The compounds are a random part of those screened.

With CCc1nnc2n1CCN(C(=O)c1cc3ccc(C)cc3[nH]1)C2 the screen gave 13.96%.
With CCn1ncc(C(=O)N2CCN(CC3CCCO3)CC2)c1C (configuration not stated) the screen gave 19.1%.
With CCCNC(=O)Nc1ccc2c(c1)N(S(=O)(=O)CC)CC2 the screen gave 9.014%.
With CN(C(=O)c1ccc(NC(=O)c2cc[nH]n2)cc1)C1CCCCC1 the screen gave 11.34%.
With COc1ncccc1C(=O)Nc1ccccc1-c1ccc(=O)n(C)n1 the screen gave 5.755%.
With Cc1n[nH]c(C)c1CCNC(=O)Nc1ccc(S(C)(=O)=O)cc1 the screen gave 12.54%.
With Cn1nc(Cn2cccn2)c2c1CN(Cc1ccsc1)C2 the screen gave 20.63%.
With Cc1c(F)cc(C(=O)NCC(F)(F)F)cc1NCC(=O)N(C)C the screen gave 4.337%.
With COC1CCN(C(=O)C2CC(=O)N(c3ccccc3Br)C2)CC1 (configuration not stated) the screen gave 10.84%.
With CCCc1nnc(NC(C)c2ccc3c(c2)OCCO3)o1 (configuration not stated) the screen gave 2.395%.
With Cc1cc(C)cc(C(=O)Nc2ccc(CC3CC(=O)NC3=O)cc2)c1 (configuration not stated) the screen gave 19.06%.
With O=C(CN1CCCC1Cn1cncn1)Nc1ccc(Cl)cn1 (configuration not stated) the screen gave 8.215%.
With CCOC(=O)c1cc(C(C)(O)CCC=C(C)C)on1 (configuration not stated) the screen gave 5.516%.
With CC(C)Nc1nc(C(=O)Nc2ccccn2)cs1 the screen gave -10.3%.
With COCCN(CC1CC1)c1nc(CCN)nc2ccccc12 the screen gave 18.38%.
With Cc1nc(CCNC(=O)NC(C)c2ccc3c(c2)OCCO3)cs1 (configuration not stated) the screen gave 11.49%.
With O=C(NCC1CCOC1)c1cc(-c2cccc(Cl)c2)on1 (configuration not stated) the screen gave 9.312%.
With COc1cccc(N2CCN(CC[C@H](O)c3ccccc3)CC2=O)c1 the screen gave 4.267%.
With CCC(=O)N1CCC(Cc2ccccc2-c2cccc(C)c2)(C(N)=O)C1 (configuration not stated) the screen gave 1.294%.
With Cn1cnnc1C1CCCN(C(=O)NCCc2ccccn2)C1 (configuration not stated) the screen gave 9.922%.
With Cc1cccc(NC(=O)c2cccc(OCc3nnnn3C)c2)n1 the screen gave 6.907%.
With CCC1=N[C@@]2(CC[C@@H]3CN(C(=O)Nc4ccc(F)cc4)C[C@@H]32)C(=O)N1 the screen gave 13.33%.
With COCC(=O)N1CC[C@@H]2O[C@@H](C)C[C@H]2C1 the screen gave 15.92%.
With Cc1nn(C)c2c(NCc3cccnc3)nc(C3CC3)nc12 the screen gave 13.39%.
With CS(=O)(=O)N1C[C@H]2CCC[C@@]2(COCC2CCOCC2)C1 the screen gave 13.61%.
With COCCCN1C(=O)CC[C@H]2CN(Cc3ncc[nH]3)CC[C@H]21 the screen gave 5.08%.
With CNC(=O)Nc1cc(-c2ccc(Br)cc2)nn1CCO the screen gave 14.08%.
With CNC(=O)C1CCN(C(=O)c2cccn2Cc2cccs2)CC1 the screen gave 7.692%.
With O=C(NCc1ccc(OCC2CC2)nc1)c1c(F)cccc1F the screen gave 16.2%.

Repeated from the top, 2 entries:

structure,Inhibition
CCc1nnc2n1CCN(C(=O)c1cc3ccc(C)cc3[nH]1)C2,13.96
CCn1ncc(C(=O)N2CCN(CC3CCCO3)CC2)c1C (configuration not stated),19.1

Source: ChEMBL document CHEMBL3988442, “University of Dundee, Small-Polar-MMV Screening Library” (2021).